Source: the supplement of paper PMC11006884
Only a part is listed here, and it is no random draw.

Amino acid sequences for entries named in this document (tags omitted). A change or cut given only in a name is not applied to a line headed by its entry.
UniProt Q13347, whole entry: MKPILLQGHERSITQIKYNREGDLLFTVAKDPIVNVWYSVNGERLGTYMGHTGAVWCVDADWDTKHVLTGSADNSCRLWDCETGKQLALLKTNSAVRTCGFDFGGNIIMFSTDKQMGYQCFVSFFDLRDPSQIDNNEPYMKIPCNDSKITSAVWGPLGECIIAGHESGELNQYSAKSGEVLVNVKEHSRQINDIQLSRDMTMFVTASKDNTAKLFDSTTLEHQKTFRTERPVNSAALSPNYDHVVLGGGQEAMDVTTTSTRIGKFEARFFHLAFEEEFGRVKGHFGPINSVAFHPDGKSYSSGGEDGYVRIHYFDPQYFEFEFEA
UniProt Q12802: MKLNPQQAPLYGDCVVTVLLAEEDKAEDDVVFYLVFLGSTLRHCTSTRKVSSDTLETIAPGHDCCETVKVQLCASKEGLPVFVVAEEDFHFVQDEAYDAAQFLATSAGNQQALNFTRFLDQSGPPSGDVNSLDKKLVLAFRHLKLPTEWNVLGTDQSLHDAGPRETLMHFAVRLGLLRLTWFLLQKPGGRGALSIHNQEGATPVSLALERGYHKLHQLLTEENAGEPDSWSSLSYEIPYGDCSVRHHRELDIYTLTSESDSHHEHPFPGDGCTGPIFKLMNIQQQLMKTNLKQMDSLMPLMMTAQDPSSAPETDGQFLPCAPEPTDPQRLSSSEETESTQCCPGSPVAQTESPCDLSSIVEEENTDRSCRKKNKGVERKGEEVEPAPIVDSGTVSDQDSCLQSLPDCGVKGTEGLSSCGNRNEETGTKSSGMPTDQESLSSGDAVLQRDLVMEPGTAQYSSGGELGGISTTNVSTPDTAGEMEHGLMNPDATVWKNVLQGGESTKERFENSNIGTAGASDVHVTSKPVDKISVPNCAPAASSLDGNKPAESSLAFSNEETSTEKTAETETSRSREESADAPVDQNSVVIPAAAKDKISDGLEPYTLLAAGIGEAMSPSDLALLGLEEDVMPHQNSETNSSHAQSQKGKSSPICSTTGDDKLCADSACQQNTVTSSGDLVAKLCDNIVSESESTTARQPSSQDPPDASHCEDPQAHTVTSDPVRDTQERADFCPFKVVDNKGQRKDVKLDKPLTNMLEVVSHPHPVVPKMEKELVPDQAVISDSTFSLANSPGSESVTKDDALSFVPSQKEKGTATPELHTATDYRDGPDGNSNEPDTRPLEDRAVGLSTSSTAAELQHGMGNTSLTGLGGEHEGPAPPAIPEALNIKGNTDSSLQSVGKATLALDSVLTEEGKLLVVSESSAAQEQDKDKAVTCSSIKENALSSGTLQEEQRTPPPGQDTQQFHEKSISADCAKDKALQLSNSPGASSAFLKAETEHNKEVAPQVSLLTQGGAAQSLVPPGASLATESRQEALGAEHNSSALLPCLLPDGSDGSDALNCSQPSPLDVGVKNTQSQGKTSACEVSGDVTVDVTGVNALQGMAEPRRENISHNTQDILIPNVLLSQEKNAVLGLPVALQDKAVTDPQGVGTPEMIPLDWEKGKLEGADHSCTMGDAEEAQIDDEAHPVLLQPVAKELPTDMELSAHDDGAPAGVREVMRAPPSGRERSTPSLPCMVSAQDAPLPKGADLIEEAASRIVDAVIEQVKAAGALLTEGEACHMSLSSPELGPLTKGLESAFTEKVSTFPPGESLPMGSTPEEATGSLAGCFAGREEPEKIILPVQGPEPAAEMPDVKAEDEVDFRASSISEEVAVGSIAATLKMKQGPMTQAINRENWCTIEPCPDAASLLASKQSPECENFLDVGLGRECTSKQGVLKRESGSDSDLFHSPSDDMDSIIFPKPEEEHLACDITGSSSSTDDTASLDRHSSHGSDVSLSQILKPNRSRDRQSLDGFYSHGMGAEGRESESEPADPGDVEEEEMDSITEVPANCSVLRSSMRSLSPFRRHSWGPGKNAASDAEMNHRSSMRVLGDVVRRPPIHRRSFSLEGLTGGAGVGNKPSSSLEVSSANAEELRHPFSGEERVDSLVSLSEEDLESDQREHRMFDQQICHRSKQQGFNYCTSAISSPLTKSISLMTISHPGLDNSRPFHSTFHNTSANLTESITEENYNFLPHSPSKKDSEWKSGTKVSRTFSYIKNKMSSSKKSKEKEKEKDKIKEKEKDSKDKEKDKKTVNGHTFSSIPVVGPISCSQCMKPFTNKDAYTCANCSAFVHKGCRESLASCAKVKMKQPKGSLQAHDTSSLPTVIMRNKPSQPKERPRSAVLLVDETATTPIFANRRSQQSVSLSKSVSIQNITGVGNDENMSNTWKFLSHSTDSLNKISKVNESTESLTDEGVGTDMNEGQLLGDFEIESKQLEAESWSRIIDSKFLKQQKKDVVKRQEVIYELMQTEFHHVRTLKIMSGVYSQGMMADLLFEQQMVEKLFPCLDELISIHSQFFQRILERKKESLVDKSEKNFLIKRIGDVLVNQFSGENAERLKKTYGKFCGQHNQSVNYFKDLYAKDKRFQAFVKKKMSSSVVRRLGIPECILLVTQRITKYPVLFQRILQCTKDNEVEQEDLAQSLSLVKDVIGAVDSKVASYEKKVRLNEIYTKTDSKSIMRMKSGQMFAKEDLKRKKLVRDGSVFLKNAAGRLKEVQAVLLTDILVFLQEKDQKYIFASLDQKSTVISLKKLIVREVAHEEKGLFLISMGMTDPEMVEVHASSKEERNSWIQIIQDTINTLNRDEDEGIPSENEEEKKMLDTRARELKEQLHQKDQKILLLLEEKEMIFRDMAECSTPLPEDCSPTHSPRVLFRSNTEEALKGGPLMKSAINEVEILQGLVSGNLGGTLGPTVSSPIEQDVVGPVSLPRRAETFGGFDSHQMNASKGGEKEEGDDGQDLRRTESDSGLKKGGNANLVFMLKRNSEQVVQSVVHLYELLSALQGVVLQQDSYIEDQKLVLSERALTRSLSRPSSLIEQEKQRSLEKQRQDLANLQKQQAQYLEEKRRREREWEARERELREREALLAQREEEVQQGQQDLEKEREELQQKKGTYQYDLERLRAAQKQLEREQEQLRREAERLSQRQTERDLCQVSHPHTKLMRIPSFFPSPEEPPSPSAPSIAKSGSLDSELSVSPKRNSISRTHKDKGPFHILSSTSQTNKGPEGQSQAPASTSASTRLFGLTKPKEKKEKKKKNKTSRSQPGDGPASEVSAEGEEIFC
UniProt Q02952: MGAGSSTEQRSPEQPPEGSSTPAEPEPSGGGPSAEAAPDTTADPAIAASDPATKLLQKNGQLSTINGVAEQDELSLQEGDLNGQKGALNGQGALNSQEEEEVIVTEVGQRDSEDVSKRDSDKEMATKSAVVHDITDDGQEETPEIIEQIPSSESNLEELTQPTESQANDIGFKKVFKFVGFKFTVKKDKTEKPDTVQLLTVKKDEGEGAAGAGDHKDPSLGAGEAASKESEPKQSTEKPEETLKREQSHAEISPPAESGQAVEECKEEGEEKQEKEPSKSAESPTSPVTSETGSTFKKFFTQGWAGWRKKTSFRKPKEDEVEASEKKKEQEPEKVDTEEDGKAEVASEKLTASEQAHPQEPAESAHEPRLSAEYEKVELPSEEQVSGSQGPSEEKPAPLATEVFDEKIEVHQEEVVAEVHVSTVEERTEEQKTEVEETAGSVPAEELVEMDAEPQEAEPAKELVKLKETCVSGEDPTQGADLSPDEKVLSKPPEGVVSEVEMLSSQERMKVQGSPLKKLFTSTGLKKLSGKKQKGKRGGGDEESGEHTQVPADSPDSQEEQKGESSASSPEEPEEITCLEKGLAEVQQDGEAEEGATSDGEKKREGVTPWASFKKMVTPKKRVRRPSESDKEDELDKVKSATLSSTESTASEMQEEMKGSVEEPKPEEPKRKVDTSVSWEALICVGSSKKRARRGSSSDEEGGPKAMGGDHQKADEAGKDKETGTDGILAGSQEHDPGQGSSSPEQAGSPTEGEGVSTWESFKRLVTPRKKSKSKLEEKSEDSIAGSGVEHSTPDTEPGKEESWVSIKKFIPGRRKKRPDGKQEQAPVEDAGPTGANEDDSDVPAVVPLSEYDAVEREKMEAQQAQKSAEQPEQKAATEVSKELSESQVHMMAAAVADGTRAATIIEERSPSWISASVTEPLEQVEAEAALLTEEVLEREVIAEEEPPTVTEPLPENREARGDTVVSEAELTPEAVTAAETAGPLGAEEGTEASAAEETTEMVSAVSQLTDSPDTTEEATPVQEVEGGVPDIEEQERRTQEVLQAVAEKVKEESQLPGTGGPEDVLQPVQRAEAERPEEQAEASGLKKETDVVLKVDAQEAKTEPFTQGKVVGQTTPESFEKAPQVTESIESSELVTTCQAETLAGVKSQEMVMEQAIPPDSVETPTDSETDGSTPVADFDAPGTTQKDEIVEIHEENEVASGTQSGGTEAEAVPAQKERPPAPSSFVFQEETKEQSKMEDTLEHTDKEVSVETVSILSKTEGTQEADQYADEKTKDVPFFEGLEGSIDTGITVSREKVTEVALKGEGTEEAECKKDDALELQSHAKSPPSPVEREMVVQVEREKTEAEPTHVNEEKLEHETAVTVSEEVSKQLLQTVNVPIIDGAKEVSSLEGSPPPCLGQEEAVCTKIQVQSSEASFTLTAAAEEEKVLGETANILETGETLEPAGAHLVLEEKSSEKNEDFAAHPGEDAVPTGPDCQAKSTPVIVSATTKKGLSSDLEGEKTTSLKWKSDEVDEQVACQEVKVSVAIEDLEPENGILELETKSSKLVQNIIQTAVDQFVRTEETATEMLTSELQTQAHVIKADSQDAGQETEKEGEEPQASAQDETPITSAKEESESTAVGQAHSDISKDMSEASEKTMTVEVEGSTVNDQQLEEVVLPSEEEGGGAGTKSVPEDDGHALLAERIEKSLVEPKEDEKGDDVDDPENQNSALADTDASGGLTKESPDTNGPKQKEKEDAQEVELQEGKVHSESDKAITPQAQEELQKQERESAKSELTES
UniProt Q04637, whole entry, looked up: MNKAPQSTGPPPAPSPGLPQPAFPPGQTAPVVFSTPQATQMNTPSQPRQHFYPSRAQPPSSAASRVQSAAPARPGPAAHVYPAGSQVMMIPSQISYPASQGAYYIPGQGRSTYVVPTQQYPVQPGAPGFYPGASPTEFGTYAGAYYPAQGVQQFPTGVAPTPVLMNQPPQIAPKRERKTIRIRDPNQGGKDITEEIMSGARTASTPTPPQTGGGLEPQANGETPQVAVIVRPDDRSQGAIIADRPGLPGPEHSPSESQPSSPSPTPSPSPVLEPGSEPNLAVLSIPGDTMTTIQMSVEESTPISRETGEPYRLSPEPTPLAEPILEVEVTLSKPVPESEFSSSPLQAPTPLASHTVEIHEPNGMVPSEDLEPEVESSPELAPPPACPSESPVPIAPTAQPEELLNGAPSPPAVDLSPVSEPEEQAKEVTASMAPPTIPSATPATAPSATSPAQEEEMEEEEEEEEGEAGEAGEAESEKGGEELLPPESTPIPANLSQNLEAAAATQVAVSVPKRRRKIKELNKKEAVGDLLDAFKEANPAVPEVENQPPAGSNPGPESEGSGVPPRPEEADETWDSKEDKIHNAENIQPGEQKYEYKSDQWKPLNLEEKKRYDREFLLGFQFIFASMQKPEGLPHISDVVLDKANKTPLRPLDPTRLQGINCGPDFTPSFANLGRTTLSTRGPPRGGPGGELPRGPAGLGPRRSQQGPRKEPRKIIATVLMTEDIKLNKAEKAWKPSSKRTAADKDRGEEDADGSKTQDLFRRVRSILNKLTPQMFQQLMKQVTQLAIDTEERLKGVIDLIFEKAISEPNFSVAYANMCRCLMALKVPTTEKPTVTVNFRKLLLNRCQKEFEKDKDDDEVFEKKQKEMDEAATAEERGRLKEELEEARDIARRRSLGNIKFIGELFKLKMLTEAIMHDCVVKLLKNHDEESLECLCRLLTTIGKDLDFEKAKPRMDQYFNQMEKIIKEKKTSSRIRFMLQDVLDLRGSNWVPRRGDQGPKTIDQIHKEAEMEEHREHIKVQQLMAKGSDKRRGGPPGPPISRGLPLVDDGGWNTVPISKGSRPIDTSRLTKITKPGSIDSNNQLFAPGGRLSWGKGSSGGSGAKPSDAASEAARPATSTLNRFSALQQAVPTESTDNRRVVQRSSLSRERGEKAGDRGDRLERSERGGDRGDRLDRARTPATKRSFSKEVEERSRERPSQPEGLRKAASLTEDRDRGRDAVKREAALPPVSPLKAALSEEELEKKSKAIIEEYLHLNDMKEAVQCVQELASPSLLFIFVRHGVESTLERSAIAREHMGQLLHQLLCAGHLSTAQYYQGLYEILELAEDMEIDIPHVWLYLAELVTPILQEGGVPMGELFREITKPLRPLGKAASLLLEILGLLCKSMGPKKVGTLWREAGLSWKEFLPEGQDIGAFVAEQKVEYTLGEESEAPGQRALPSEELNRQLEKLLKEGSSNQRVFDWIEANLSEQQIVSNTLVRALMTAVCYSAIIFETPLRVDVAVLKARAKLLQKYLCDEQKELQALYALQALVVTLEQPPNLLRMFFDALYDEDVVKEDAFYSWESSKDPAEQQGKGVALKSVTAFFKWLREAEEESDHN

The targets below were run with COC(=O)C#Cc1ccccc1 [methyl 3-phenylpropiolate] (assay: log2 ratio of iodoacetamide-alkyne labeling of the cysteine site, DMSO over compound (competition); higher = stronger covalent engagement of the cysteine by the compound, active = 1 or more). Conditions: 500 µM; treatment time 1 h; system: HEK293T cell lysate.
Procedure, shortened: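 Reporter intensities give each cysteine's log2 competition ratio as the mean of control channels over the mean of compound channels. The samples were HEK293T lysate (2 mg/mL) given vehicle or electrophile (500 µM, 1 h, ambient temperature), then iodoacetamide alkyne (1 h), followed by click coupling to sCIP-TMT reagents, pooling, trypsin digestion overnight at 37 °C, streptavidin enrichment, acid elution, Orbitrap Eclipse LC-MS/MS with FAIMS and FragPipe quantification. Duplicate channels and three replicates were run, and cysteines quantified in only one replicate were discarded.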
With ILF3 C295 (UniProt Q12906) the “log2 ratio of iodoacetamide-alkyne labeling” value (“log2 ratio” below) was inactive: 0.193.
In the case of CHAF1A C465 (UniProt Q13111), the “log2 ratio” value is reported as inactive: 0.368.
In the case of VAC14 C114 (UniProt Q08AM6), the “log2 ratio” value is reported as inactive: 0.408.
TRIM28 C713 (UniProt Q13263) was tested, and the “log2 ratio” value was inactive: -0.0745.
DST C4439 (UniProt Q03001) was tested, and the “log2 ratio” value was inactive: 0.187.
EIF3I C160 (UniProt Q13347) was tested, and the “log2 ratio” value was inactive: 0.0316.
With UniProt Q03164_C2159 the “log2 ratio” value was inactive: 0.49.
In the case of UniProt Q13247_C61, the “log2 ratio” value is reported as inactive: -0.0753.
In the case of AKAP13 C683 (UniProt Q12802), the “log2 ratio” value is reported as inactive: 0.255.
With GTF3C1 C1977 (UniProt Q12789) the “log2 ratio” value was inactive: 0.746.
ILF3 C203 (UniProt Q12906) was tested, and the “log2 ratio” value was inactive: 0.445.
DHX9 C415 (UniProt Q08211) was tested, and the “log2 ratio” value was inactive: 0.202.
With PSMD2 C459 (UniProt Q13200) the “log2 ratio” value was inactive: 0.253.
For CHAF1A C492 (UniProt Q13111), the “log2 ratio” value was inactive: 0.177.
With NCBP1 C44 (UniProt Q09161) the “log2 ratio” value was inactive: 0.144.
For LAMTOR4 C51 (UniProt Q0VGL1), the “log2 ratio” value was inactive: 0.577.
With AKAP12 C1139 (UniProt Q02952) the “log2 ratio” value was inactive: 0.521.
EIF4G1 C1384 (UniProt Q04637) was tested, and the “log2 ratio” value was inactive: 0.102.
ACACA C1297 (UniProt Q13085) was tested, and the “log2 ratio” value was inactive: 0.156.
In the case of AKAP12 C1521 (UniProt Q02952), the “log2 ratio” value is reported as inactive: 0.126.
In the case of TRAF2 C129 (UniProt Q12933), the “log2 ratio” value is reported as inactive: 0.4.
AKAP12 C1399 (UniProt Q02952) was tested, and the “log2 ratio” value was active: 1.16.
